Results deposited as PubChem BioAssay AID504764 (Drosophila RNAi Screening Center, 2011).
The screen tested about 22,000 reagents; below is an unselected part of those that have a named target and a result. Over the whole deposit, 403 (1.9%) were called active. 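Unnormalised raw counts per well; ratio z-scores behind the hit calls and whether each hit raises or lowers signal are not deposited.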 Not given: the amount of reagent.

Test: 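Genome-wide screen for regulators of Notch-driven gene expression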 (primary screen)
Cells: Drosophila Kc167 cells
Reagent: long dsRNA against Drosophila genes
Duration: about 5 days (4 days dsRNA, then 24 h after transfection)
Challenge: transfection of constitutively active membrane-tethered Notch lacking the extracellular domain, read 24 h later
Measurement: 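Light from a Notch-responsive E(spl)m3 luciferase reporter under active Notch, with control-promoter and no-Notch reporter wells to normalise; raw counts from paired wells a and b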
Direction: induced reporter light, run 1, well a and induced reporter light, run 1, well b: higher = more light from the Notch target reporter with active Notch; control promoter light, run 1, well a and control promoter light, run 1, well b: higher = more light from the viral control promoter (cell number, transfection, viability); uninduced reporter light, run 1, well a: higher = more light from the Notch target reporter without active Notch
Rule for the call: 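Hit if the duplicate-averaged log2 ratio of induced to control-promoter light gives a plate-wise z beyond ±2, or induced to uninduced beyond ±1.8; weak-control or discordant-duplicate wells dropped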
Calls: active = modifier hit (raised or lowered Notch signal); inactive = not a hit

no.	target gene	DRSC id	induced reporter light, run 1, well a	induced reporter light, run 1, well b	control promoter light, run 1, well a	control promoter light, run 1, well b	uninduced reporter light, run 1, well a	Call
1	sw	DRSC20388	1.06e5	96695	84775	84680	7360	inactive
2	CG18467	DRSC06758	1.02e5	1.02e5	1.23e5	1.29e5	9480	inactive
3	CG13609	DRSC14612	1.54e5	1.58e5	2.05e5	2.07e5	14630	inactive
4	Tfb4	DRSC00675	1.17e5	1.01e5	1.08e5	69830	9335	inactive
5	CG30484	DRSC05457	2.05e5	1.80e5	2.50e5	2.80e5	17465	inactive
6	Mics1	DRSC12537	75505	92265	1.02e5	53920	6700	inactive
7	Sf3a2	DRSC09801	1.40e5	1.29e5	89180	50235	9945	inactive
8	CG6034	DRSC10572	1.74e5	1.44e5	2.34e5	1.84e5	6280	inactive
9	spidey	DRSC17932	1.40e5	1.39e5	2.33e5	2.65e5	10870	inactive
10	CG30286	DRSC04070	55445	58785	47950	78135	3065	inactive
11	Phyhd1	DRSC14911	66120	87685	77420	77910	3895	inactive

In a second layout: 2 of the entries above
{"target gene": "Mics1", "DRSC id": "DRSC12537", "induced reporter light, run 1, well a": 75505, "induced reporter light, run 1, well b": 92265, "control promoter light, run 1, well a": 1.02e5, "control promoter light, run 1, well b": 53920, "uninduced reporter light, run 1, well a": 6700, "Call": "inactive"}
{"target gene": "Sf3a2", "DRSC id": "DRSC09801", "induced reporter light, run 1, well a": 1.40e5, "induced reporter light, run 1, well b": 1.29e5, "control promoter light, run 1, well a": 89180, "control promoter light, run 1, well b": 50235, "uninduced reporter light, run 1, well a": 9945, "Call": "inactive"}

Next results follow.
no.	target gene	DRSC id	induced reporter light, run 1, well a	induced reporter light, run 1, well b	control promoter light, run 1, well a	control promoter light, run 1, well b	uninduced reporter light, run 1, well a	Call
12	flfl	DRSC16474	93420	80860	54340	40015	4870	inactive
13	CG7546	DRSC08885	2.01e5	1.74e5	1.82e5	2.13e5	14828	inactive
14	CG7546	DRSC10871	1.15e5	1.40e5	90630	43350	13445	inactive
15	CG17002	DRSC04978	1.68e5	1.93e5	1.50e5	1.62e5	17070	active
16	eIF4E5	DRSC10975	1.79e5	1.98e5	2.76e5	1.65e5	6870	inactive
17	CG10104	DRSC05964	1.05e5	1.17e5	1.36e5	1.10e5	11050	inactive
18	Spase25	DRSC19776	1.73e5	2.09e5	2.24e5	2.40e5	11738	inactive
19	Pgam5	DRSC18551	1.83e5	2.17e5	3.05e5	2.93e5	13900	inactive
20	Cyp12b2	DRSC07364	77180	79265	79655	66160	7005	inactive
